# Experimental data taken from the supplement of paper PMC8728848.
# The list shows a part of the results.
# B1: GST Gap3 (Streptococcus parasanguinis) (protein)
# chain: MTKQLISEIYWNEIRKGENYLYGSQIKFQEDLVNFYNPQLASGKPIVTFKSRTNYQGDRHSPDLPILIQGNRYLLEYQIDAVPANSFFLQLDFFNRQAEQIESIVLRNSGESFIFPKDTFTYTLTLMSAGCQSVTYQKFMIYDINDEEKKNHIVENRYLRELLPKDLDLVKNLIEYI
# What was measured:
# Test in all cases: glycan array binding signal (z-score within array); higher = stronger binding
# Conditions in all cases: glycan notation: IUPAC condensed, linker removed
# [1] = molecular target: Fuc(a1-2)[GalNAc(a1-3)]Gal(b1-3)GalNAc(b1-3)Gal(a1-4)Gal(b1-4)Glc
# Summary of the method: (§1)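 Glycan array data were curated from 3228 arrays in the Consortium for Functional Glycomics database and kept only where the protein sequence was available. Glycan names were converted to IUPAC-condensed notation, and columns mapping to the same glycan were averaged. The binding signal is a within-array Z-score, averaged across arrays of the same protein sequence at different concentrations or buffers and across linkers. Negative Z-scores can be read as non-binding.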
# [2] = molecular target: Fuc(a1-2)[GalNAc(a1-3)]Gal(b1-3)GlcNAc
# Summary of the method: as §1
# [3] = molecular target: Fuc(a1-2)[GalNAc(a1-3)]Gal(b1-3)GlcNAc(b1-2)Man(a1-3)[Fuc(a1-2)[GalNAc(a1-3)]Gal(b1-3)GlcNAc(b1-2)Man(a1-6)]Man(b1-4)GlcNAc(b1-4)GlcNAc
# Summary of the method: as §1
# [4] = molecular target: Fuc(a1-2)[GalNAc(a1-3)]Gal(b1-3)GlcNAc(b1-2)Man(a1-3)[Fuc(a1-2)[GalNAc(a1-3)]Gal(b1-3)GlcNAc(b1-2)Man(a1-6)]Man(b1-4)GlcNAc(b1-4)[Fuc(a1-6)]GlcNAc
# Summary of the method: as §1
# [5] = molecular target: Fuc(a1-2)[GalNAc(a1-3)]Gal(b1-3)GlcNAc(b1-3)GalNAc
# Summary of the method: as §1
# [6] = molecular target: Fuc(a1-2)[GalNAc(a1-3)]Gal(b1-3)GlcNAc(b1-6)GalNAc
# Summary of the method: as §1
# [7] = molecular target: Fuc(a1-2)[GalNAc(a1-3)]Gal(b1-4)Glc
# Summary of the method: as §1
# [8] = molecular target: Fuc(a1-2)[GalNAc(a1-3)]Gal(b1-4)GlcNAc
# Summary of the method: as §1
# [9] = molecular target: Fuc(a1-2)[GalNAc(a1-3)]Gal(b1-4)GlcNAc(b1-2)Man
# Summary of the method: as §1
# [10] = molecular target: Fuc(a1-2)[GalNAc(a1-3)]Gal(b1-4)GlcNAc(b1-2)Man(a1-3)[Fuc(a1-2)[GalNAc(a1-3)]Gal(b1-4)GlcNAc(b1-2)Man(a1-6)]Man(b1-4)GlcNAc(b1-4)GlcNAc
# Summary of the method: as §1
# [11] = molecular target: Fuc(a1-2)[GalNAc(a1-3)]Gal(b1-4)GlcNAc(b1-2)Man(a1-3)[Fuc(a1-2)[GalNAc(a1-3)]Gal(b1-4)GlcNAc(b1-2)Man(a1-6)]Man(b1-4)GlcNAc(b1-4)[Fuc(a1-6)]GlcNAc
# Summary of the method: as §1
# [12] = molecular target: Fuc(a1-2)[GalNAc(a1-3)]Gal(b1-4)GlcNAc(b1-3)Gal(b1-4)GlcNAc
# Summary of the method: as §1
# [13] = molecular target: Fuc(a1-2)[GalNAc(a1-3)]Gal(b1-4)GlcNAc(b1-3)Gal(b1-4)GlcNAc(b1-3)Gal(b1-4)GlcNAc
# Summary of the method: as §1
# [14] = molecular target: Fuc(a1-2)[GalNAc(a1-3)]Gal(b1-4)GlcNAc(b1-3)GalNAc
# Summary of the method: as §1
# [15] = molecular target: Fuc(a1-2)[GalNAc(a1-3)]Gal(b1-4)GlcNAc(b1-3)[Fuc(a1-2)[GalNAc(a1-3)]Gal(b1-4)GlcNAc(b1-6)]GalNAc
# Summary of the method: as §1
# [16] = molecular target: Fuc(a1-2)[GalNAc(a1-3)]Gal(b1-4)GlcNAc(b1-6)GalNAc
# Summary of the method: as §1
# [17] = molecular target: Fuc(a1-2)[GalNAc(a1-3)]Gal(b1-4)[Fuc(a1-3)]GlcNAc
# Summary of the method: as §1
# [18] = molecular target: Fuc(a1-2)[GalNAc(a1-3)]Gal(b1-4)[Fuc(a1-3)]GlcNAc(b1-3)GalNAc
# Summary of the method: as §1
# [19] = molecular target: Fuc(a1-2)[GalNAc(a1-4)]Gal(b1-4)GlcNAc
# Summary of the method: as §1
# [20] = molecular target: Fuc(a1-2)[GalNAc(b1-3)]Gal
# Summary of the method: as §1
# [21] = molecular target: Fuc(a1-3)GlcNAc
# Summary of the method: as §1
# [22] = molecular target: Fuc(a1-3)[Gal(b1-4)]Glc6S
# Summary of the method: as §1
# [23] = molecular target: Fuc(a1-3)[Gal(b1-4)]GlcNAc
# Summary of the method: as §1
# [24] = molecular target: Fuc(a1-3)[Gal(b1-4)]GlcNAc(b1-2)Man
# Summary of the method: as §1
# [25] = molecular target: Fuc(a1-3)[Gal(b1-4)]GlcNAc(b1-2)Man(a1-3)[Fuc(a1-3)[Gal(b1-4)]GlcNAc(b1-2)Man(a1-6)]Man(b1-4)GlcNAc(b1-4)GlcNAc
# Summary of the method: as §1
# [26] = molecular target: Fuc(a1-3)[Gal(b1-4)]GlcNAc(b1-2)Man(a1-3)[Fuc(a1-3)[Gal(b1-4)]GlcNAc(b1-2)Man(a1-6)]Man(b1-4)GlcNAc(b1-4)[Fuc(a1-6)]GlcNAc
# Summary of the method: as §1
# [27] = molecular target: Fuc(a1-3)[Gal(b1-4)]GlcNAc(b1-2)Man(a1-6)[Gal(b1-4)GlcNAc(b1-2)Man(a1-3)]Man(b1-4)GlcNAc(b1-4)GlcNAc
# Summary of the method: as §1
# [28] = molecular target: Fuc(a1-3)[Gal(b1-4)]GlcNAc(b1-3)Gal(b1-3)[Fuc(a1-4)]GlcNAc
# Summary of the method: as §1
# [29] = molecular target: Fuc(a1-3)[Gal(b1-4)]GlcNAc(b1-3)Gal(b1-4)[Fuc(a1-3)]GlcNAc
# Summary of the method: as §1
# [30] = molecular target: Fuc(a1-3)[Gal(b1-4)]GlcNAc(b1-3)Gal(b1-4)[Fuc(a1-3)]GlcNAc(b1-3)Gal(b1-4)[Fuc(a1-3)]GlcNAc
# Summary of the method: as §1
# [31] = molecular target: Fuc(a1-3)[Gal(b1-4)]GlcNAc(b1-3)GalNAc
# Summary of the method: as §1
# [32] = molecular target: Fuc(a1-3)[Gal(b1-4)]GlcNAc(b1-4)Gal(b1-4)[Fuc(a1-3)]GlcNAc
# Summary of the method: as §1
# [33] = molecular target: Fuc(a1-3)[Gal(b1-4)]GlcNAc(b1-4)Gal(b1-4)[Fuc(a1-3)]GlcNAc(b1-4)Gal(b1-4)[Fuc(a1-3)]GlcNAc
# Summary of the method: as §1
# [34] = molecular target: Fuc(a1-3)[Gal(b1-4)]GlcNAc(b1-6)GalNAc
# Summary of the method: as §1
# [35] = molecular target: Fuc(a1-3)[Gal(b1-4)]GlcNAc(b1-6)[Gal(b1-3)GlcNAc(b1-3)]Gal(b1-4)Glc
# Summary of the method: as §1
# [36] = molecular target: Fuc(a1-3)[Gal(b1-4)]GlcNAc6S
# Summary of the method: as §1
# [37] = molecular target: Fuc(a1-3)[Gal3S(b1-4)]Glc
# Summary of the method: as §1
binder,measurement,setting,value
B1,glycan array binding signal (z-score),[1],-0.198
same,glycan array binding signal (z-score),[2],-0.289
same,glycan array binding signal (z-score),[3],1.06
same,glycan array binding signal (z-score),[4],-0.44
same,glycan array binding signal (z-score),[5],0.47
same,glycan array binding signal (z-score),[6],0.295
same,glycan array binding signal (z-score),[7],-0.313
same,glycan array binding signal (z-score),[8],-0.361
same,glycan array binding signal (z-score),[9],-0.552
same,glycan array binding signal (z-score),[10],0.238
same,glycan array binding signal (z-score),[11],0.087
same,glycan array binding signal (z-score),[12],-0.297
same,glycan array binding signal (z-score),[13],0.035
same,glycan array binding signal (z-score),[14],-0.004
same,glycan array binding signal (z-score),[15],-0.377
same,glycan array binding signal (z-score),[16],-0.169
same,glycan array binding signal (z-score),[17],-0.211
same,glycan array binding signal (z-score),[18],0.634
same,glycan array binding signal (z-score),[19],0.082
same,glycan array binding signal (z-score),[20],-0.16
same,glycan array binding signal (z-score),[21],-0.324
same,glycan array binding signal (z-score),[22],-0.163
same,glycan array binding signal (z-score),[23],-0.195
same,glycan array binding signal (z-score),[24],0.397
same,glycan array binding signal (z-score),[25],0.031
same,glycan array binding signal (z-score),[26],0.845
same,glycan array binding signal (z-score),[27],-0.063
same,glycan array binding signal (z-score),[28],-0.188
same,glycan array binding signal (z-score),[29],0.033
same,glycan array binding signal (z-score),[30],-0.212
same,glycan array binding signal (z-score),[31],0.287
same,glycan array binding signal (z-score),[32],-0.013
same,glycan array binding signal (z-score),[33],-0.131
same,glycan array binding signal (z-score),[34],1.14
same,glycan array binding signal (z-score),[35],-0.245
same,glycan array binding signal (z-score),[36],0
same,glycan array binding signal (z-score),[37],1.83

# No new results follow: an excerpt of the list.
binder,measurement,setting,value
B1,glycan array binding signal (z-score),[21],-0.324
same,glycan array binding signal (z-score),[22],-0.163
same,glycan array binding signal (z-score),[23],-0.195
